Assay results reported in doi:10.1101/2020.11.17.386672.
Like-named read-outs stand apart in the source and are kept apart here. No constants are given. Whether binding was seen depends on the method and setting. Binding seen in cells or lysates may run through a third protein. Some entries that bind do so weakly or less than the wild type. Where a sequence is shown, tags or fusion partners need not be part of it.

T1: HDA15-YFP^N (Arabidopsis thaliana) (UniProt Q8GXJ1)
T1 sequence: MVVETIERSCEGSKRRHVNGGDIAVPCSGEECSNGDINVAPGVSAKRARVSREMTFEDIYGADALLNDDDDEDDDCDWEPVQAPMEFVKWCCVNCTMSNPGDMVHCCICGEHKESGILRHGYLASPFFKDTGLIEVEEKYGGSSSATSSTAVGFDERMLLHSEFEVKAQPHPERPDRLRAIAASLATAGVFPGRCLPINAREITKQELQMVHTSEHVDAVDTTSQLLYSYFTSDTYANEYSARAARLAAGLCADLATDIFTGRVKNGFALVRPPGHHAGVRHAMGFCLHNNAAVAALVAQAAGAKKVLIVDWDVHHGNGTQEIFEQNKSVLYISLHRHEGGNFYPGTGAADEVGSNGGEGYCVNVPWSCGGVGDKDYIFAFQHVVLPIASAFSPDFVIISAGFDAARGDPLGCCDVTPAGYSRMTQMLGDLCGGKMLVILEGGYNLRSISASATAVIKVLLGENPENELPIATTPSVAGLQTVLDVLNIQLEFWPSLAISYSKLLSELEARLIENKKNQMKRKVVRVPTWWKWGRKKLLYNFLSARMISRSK

T2: HDA15 (endogenous) (Arabidopsis thaliana (endogenous in Col-0)) (UniProt Q8GXJ1)
T2 sequence: T1 sequence

B1: MAC3A-YFP^C (protein, UniProt Q94BR4 1-523)
chain: MNCAISGEVPEEPVVSKKSGLLYEKRLIQTHISDYGKCPVTGEPHTLDDIVPIKTGKIVKPKPLHTASIPGLLGTFQTEWDSLMLSNFALEQQLHTARQELSHALYQHDAACRVIARLKKERDESRQLLAEAERQLPAAPEVATSNAALSNGKRGIDDGEQGPNAKKMRLGISAEVITELTDCNAALSQQRKKRQIPKTLASVDALEKFTQLSSHPLHKTNKPGIFSMDILHSKDVIATGGIDTTAVLFDRPSGQILSTLTGHSKKVTSIKFVGDTDLVLTASSDKTVRIWGCSEDGNYTSRHTLKDHSAEVRAVTVHATNKYFVSASLDSTWCFYDLSSGLCLAQVTDASENDVNYTAAAFHPDGLILGTGTAQSIVKIWDVKSQANVAKFGGHNGEITSISFSENGYFLATAALDGVRLWDLRKLKNFRTFDFPDANSVEFDHSGSYLGIAASDIRVFQAASVKAEWNPIKTLPDLSGTGKATSVKFGLDSKYIAVGSMDRNLRIFGLPDDDNTEDSAQDS
B2: MAC3B-YFP^C (protein, UniProt O22785 1-525)
chain: MNCAISGEVPVEPVVSTKSGLLFERRLIERHISDYGKCPVTGEPLTIDDIVPIKTGEIIKPKTLHTASIPGLLGTFQNEWDGLMLSNFALEQQLHTARQELSHALYQHDSACRVIARLKKERDEARQLLAEVERHIPAAPEAVTANAALSNGKRAAVDEELGPDAKKLCPGISAEIITELTDCNAALSQKRKKRQIPQTLASIDTLERFTQLSSHPLHKTNKPGICSMDILHSKDVIATGGVDATAVLFDRPSGQILSTLTGHSKKVTSVKFVGDSDLVLTASADKTVRIWRNPGDGNYACGYTLNDHSAEVRAVTVHPTNKYFVSASLDGTWCFYDLSSGSCLAQVSDDSKNVDYTAAAFHPDGLILGTGTSQSVVKIWDVKSQANVAKFDGHTGEVTAISFSENGYFLATAAEDGVRLWDLRKLRNFKSFLSADANSVEFDPSGSYLGIAASDIKVYQTASVKAEWNLIKTLPDLSGTGKATCVKFGSDAQYVAVGSMDRNLRIFGLPGDEKANVDDDSAQDS
B3: GFP-MAC3A (protein, UniProt Q94BR4 1-523)
chain: B1 chain
B4: GFP-MAC3B (protein, UniProt O22785 1-525)
chain: B2 chain

Assays:
[1] = biological target: T1, HDA15-YFP^N (Arabidopsis thaliana); assay: split reporter
[2] = biological target: T2, HDA15 (endogenous) (Arabidopsis thaliana (endogenous in Col-0)); assay: co-IP
[3] = biological target: T2, HDA15 (endogenous) (Arabidopsis thaliana (endogenous in Col-0)); assay: co-IP; remark: listed apart in the source

Binder | binding [1] | binding [2] | binding [3]
B1 | binds | – | –
B2 | binds | – | –
B3 | – | binds | –
B4 | – | binds | binds
